Laboratory results: PubChem BioAssay AID504793 (Drosophila RNAi Screening Center, 2011)
Purpose: 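Whole-genome screen for parts of the DNA damage checkpoint at G2/M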 (primary screen). System: Drosophila S2R+ cells. Reagent: long dsRNA against Drosophila genes, about 0.25 µg dsRNA per well. Timing: 4 days of dsRNA, then 4 hours of drug before read-out. Treatment: doxorubicin 0.5 µM for 4 hours to cause double-strand breaks, in cells also given a low, harmless dose of dsRNA against nbs to sensitise the assay. Measured: 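Mitotic index as the number of phospho-histone H3-positive cells in each well following doxorubicin, given as raw counts without normalisation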. Direction: mitotic cells: higher = more cells in mitosis, weaker G2 arrest. Rule for the call: 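a call needs confirmation in secondary tests, with other dsRNAs and a check of mitotic timing without damage, not just a high primary count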. Calls: active = confirmed in follow-up tests; inactive = not confirmed.
The deposit covers about 23,000 reagents; shown is a random part of those with a known target gene and a result. Over the whole deposit, 62 (0.27%) got an active call. 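Calls come from follow-up tests whose scores are not deposited, so confirmed genes may have low counts here; counts are not normalised per plate.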 Raw values are not corrected between plates. Reagent sequences are not shown.

gene | DRSC id | mitotic cells, replicate 1 | outcome
nmd (GeneID 44021) | DRSC02856 | 5 | inactive
nmd (GeneID 44021) | DRSC27985 | 6 | inactive
CG3808 (GeneID 40074) | DRSC10377 | 5 | inactive
CG12209 (GeneID 36077) | DRSC06119 | 6 | inactive
Eh (GeneID 42101) | DRSC16660 | 8 | inactive
Dap160 (GeneID 35378) | DRSC03313 | 7 | inactive
Dap160 (GeneID 35378) | DRSC27467 | 3 | inactive
S-Lap1 (GeneID 38986) | DRSC10627 | 6 | inactive
jagn (GeneID 40714) | DRSC12152 | 6 | inactive
dgt5 (GeneID 36364) | DRSC07280 | 101 | inactive
dgt5 (GeneID 36364) | DRSC29379 | 28 | inactive
CG6067 (GeneID 31529) | DRSC18399 | 10 | inactive
metro (GeneID 36176) | DRSC06341 | 6 | inactive
metro (GeneID 36176) | DRSC06725 | 3 | inactive
metro (GeneID 36176) | DRSC27336 | 7 | inactive
kat-60L1 (GeneID 40715) | DRSC12184 | 3 | inactive
kat-60L1 (GeneID 40715) | DRSC25414 | 5 | inactive
CG3630 (GeneID 31189) | DRSC18499 | 6 | inactive
CG3630 (GeneID 31189) | DRSC28903 | 3 | inactive
rhi (GeneID 44879) | DRSC05996 | 5 | inactive
Cyp6t3 (GeneID 36318) | DRSC07388 | 5 | inactive
Muc14A (GeneID 318097) | DRSC23264 | 1 | inactive
RpS14b (GeneID 47219) | DRSC18711 | 10 | inactive
ETHR (GeneID 42523) | DRSC15915 | 11 | inactive
ETHR (GeneID 42523) | DRSC29606 | 7 | inactive
bap (GeneID 42537) | DRSC16908 | 6 | inactive
bap (GeneID 42537) | DRSC27201 | 8 | inactive
CG30470 (retired record) (GeneID 246632) | DRSC05553 | 3 | inactive
CG30470 (retired record) (GeneID 246632) | DRSC06260 | 12 | inactive
CG30470 (retired record) (GeneID 246632) | DRSC06261 | 8 | inactive
CG30470 (retired record) (GeneID 246632) | DRSC06777 | 8 | inactive
CG30470 (retired record) (GeneID 246632) | DRSC23183 | – | inactive
CG14424 (GeneID 31279) | DRSC18472 | 13 | inactive
CG14424 (GeneID 31279) | DRSC29124 | 7 | inactive
CG11807 (GeneID 36683) | DRSC06087 | 8 | inactive
CG6220 (GeneID 36520) | DRSC06969 | 8 | inactive
CG30096 (GeneID 246454) | DRSC21744 | 9 | inactive
CG5440 (GeneID 33318) | DRSC00685 | 5 | inactive
CG5440 (GeneID 33318) | DRSC29429 | 7 | inactive
CG10462 (GeneID 35260) | DRSC02058 | 6 | inactive
CG30486 (GeneID 246645) | DRSC06680 | 9 | inactive
brwl (GeneID 34275) | DRSC01080 | 5 | inactive
brwl (GeneID 34275) | DRSC24965 | 5 | inactive
CG18870 (GeneID 59218) | DRSC04313 | 6 | inactive
Nap1 (GeneID 37798) | DRSC04626 | 7 | inactive
LysE (GeneID 38128) | DRSC08675 | 6 | inactive
ppk11 (GeneID 34299) | DRSC02737 | 7 | inactive
Mps1 (GeneID 42126) | DRSC16273 | 3 | inactive
CG14015 (GeneID 33780) | DRSC02346 | 5 | inactive
CG14015 (GeneID 33780) | DRSC26031 | 9 | inactive
Cpr76Ba (GeneID 40120) | DRSC11060 | 3 | inactive
Cpr76Ba (GeneID 40120) | DRSC27858 | 6 | inactive
CG4960 (GeneID 43115) | DRSC15684 | 8 | inactive
CG4960 (GeneID 43115) | DRSC27774 | 7 | inactive
CG4597 (GeneID 38604) | DRSC10432 | 2 | inactive
Nepl19 (GeneID 43411) | DRSC14875 | 11 | inactive
CG17572 (GeneID 35182) | DRSC02629 | 6 | inactive
mei-9 (GeneID 31373) | DRSC18792 | 10 | inactive
CG17104 (GeneID 34465) | DRSC02573 | 3 | inactive
CG17104 (GeneID 34465) | DRSC29692 | 4 | inactive
cv-d (GeneID 41921) | DRSC16522 | 8 | inactive
cv-d (GeneID 41921) | DRSC16524 | 30 | inactive
cv-d (GeneID 41921) | DRSC16526 | 6 | inactive
Zip102B (GeneID 43786) | DRSC17155 | 25 | inactive
Zip102B (GeneID 43786) | DRSC26001 | 5 | inactive
p-cup (GeneID 32727) | DRSC19513 | 5 | inactive
Chchd3 (GeneID 43672) | DRSC16981 | 9 | inactive
Chchd3 (GeneID 43672) | DRSC26451 | 10 | inactive
yki (GeneID 37851) | DRSC04437 | 5 | inactive
yki (GeneID 37851) | DRSC28304 | 6 | inactive
rtet (GeneID 42500) | DRSC14160 | 7 | inactive
EMC8-9 (GeneID 37635) | DRSC04380 | 6 | inactive
CG31415 (GeneID 318722) | DRSC22409 | 13 | inactive
Poxm (GeneID 40990) | DRSC16793 | 6 | inactive
Poxm (GeneID 40990) | DRSC22839 | 7 | inactive
